From patent US8008007B2, “S-adenosyl-L-methionine analogs with extended activated groups for transfer by methyltransferases” (RWTH Aachen, priority 2005, dated 2011)
Some entries share one result that the patent states for a list of compounds. At least one structure is not confirmed: it was looked up by name or label, or the drawing left a doubt.

Amino acid sequences for entries named in this document (tags omitted).
UniProt P05102, whole entry Q82A: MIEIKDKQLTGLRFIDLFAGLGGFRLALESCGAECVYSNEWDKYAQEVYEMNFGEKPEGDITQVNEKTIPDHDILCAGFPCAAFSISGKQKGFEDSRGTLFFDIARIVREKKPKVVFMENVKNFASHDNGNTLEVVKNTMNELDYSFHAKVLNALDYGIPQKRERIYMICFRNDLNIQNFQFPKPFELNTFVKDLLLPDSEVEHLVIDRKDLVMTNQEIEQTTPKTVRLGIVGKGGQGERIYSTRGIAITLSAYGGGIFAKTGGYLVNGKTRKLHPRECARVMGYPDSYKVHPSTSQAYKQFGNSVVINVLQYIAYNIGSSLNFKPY

Tests used:
M.HhaI = target: T1, M.HhaI (Haemophilus parahaemolyticus, UniProt P05102); test: DNA protection assay with M.HhaI (wild-type) on phage lambda DNA; type: biochemical; conditions: 1.16 μg phage lambda DNA, cofactor 300 μM, 37° C. for 4 h, then R.Hin6I; pH 7.4 (pH 6.0 for cofactor 6)
T1 construct: made in house
Description: (§1) Transfer kinetics of the activated ethyl (—CH2CH3), propyl (—CH2CH2CH3), prop-2-enyl (—CH2CH═CH2), prop-2-ynyl (—CH2C≡CH), but-2-ynyl (—CH2C≡CCH3), pent-2-ynyl (—CH2C≡CCH2CH3) and benzyl group (—CH2C6H5) from cofactors 3-9 by the DNA adenine-N6 methyltransferase M.TaqI and its variant V21 G, the DNA cytosine-C5 methyltransferase M.HhaI and its variant Q82A, the DNA cytosine-N4 methyltransferase M.BcnIB and the DNA cytosine-C5 methyltransferase M.SssI variant Q142A to phage lambda DNA (48502 base pairs) were investigated using a DNA protection assay. This assay makes use of the fact that DNA methyltransferase-catalyzed modifications of nucleobases within the recognition sequences of restriction endonucleases can protect the DNA against fragmentation by these enzymes. […] Unmodified DNA containing 5′-TCGA-3′ recognition sequences is readily fragmentated by R.TaqI. After DNA modification by M.TaqI in the presence of a cofactor with an activated group Z—R modified 5′-TCGA^Z—R-3′ sequences are formed and, as a result, R.TaqI is unable to fragment the modified DNA. Occurrence of fragmentation is then analyzed by agarose gel electrophoresis.
(§2) By varying the amounts of DNA methyltransferase, this assay is used to investigate the enzymatic activities of the different DNA methyltransferases with cofactors 3-9 and compare them to the enzymatic activities with the natural cofactor 1. […]

M.HhaI-Q82A = target: T2, M.HhaI-Q82A (Haemophilus parahaemolyticus, UniProt P05102, Q82A); test: DNA protection assay with M.HhaI variant Q82A on phage lambda DNA; type: biochemical; conditions: 1.16 μg phage lambda DNA, cofactor 300 μM, 37° C. for 4 h, then R.Hin6I; pH 7.4 (pH 6.0 for cofactor 6)
T2 construct: made in house
Description: as §1, §2

Compound	specific activity of M.HhaI with the cofactor (M.HhaI)	specific activity of M.HhaI-Q82A with the cofactor (M.HhaI-Q82A)
CC[S+](CCC(N)C(=O)O)CC1OC(n2cnc3c(N)ncnc32)C(O)C1O (stereo not drawn) [Cofactor 3]	< 4 u/μg	
C#CC[S+](CCC(N)C(=O)O)CC1OC(n2cnc3c(N)ncnc32)C(O)C1O (stereo not drawn) [Cofactor 6]	< 4 u/μg	< 4 u/μg
